Laboratory results as given in the supplement of paper PMC10849652.
The list shows a part of the results.

Protein sequences, listed by entry. Tags and fused reporters are not part of them. Lines headed by an entry give the natural chain unless they say otherwise; changes in a name come on top.
UniProt Q13825: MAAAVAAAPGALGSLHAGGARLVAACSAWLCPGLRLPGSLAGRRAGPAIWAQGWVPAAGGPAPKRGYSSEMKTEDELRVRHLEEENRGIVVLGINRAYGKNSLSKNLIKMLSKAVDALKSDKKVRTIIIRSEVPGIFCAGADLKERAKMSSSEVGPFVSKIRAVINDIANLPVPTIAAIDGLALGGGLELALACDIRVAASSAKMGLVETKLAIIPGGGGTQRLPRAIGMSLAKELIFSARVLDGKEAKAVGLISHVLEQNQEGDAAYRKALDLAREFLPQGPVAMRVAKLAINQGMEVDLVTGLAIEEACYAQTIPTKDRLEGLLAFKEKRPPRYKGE
UniProt Q8N3C0, whole entry, looked up: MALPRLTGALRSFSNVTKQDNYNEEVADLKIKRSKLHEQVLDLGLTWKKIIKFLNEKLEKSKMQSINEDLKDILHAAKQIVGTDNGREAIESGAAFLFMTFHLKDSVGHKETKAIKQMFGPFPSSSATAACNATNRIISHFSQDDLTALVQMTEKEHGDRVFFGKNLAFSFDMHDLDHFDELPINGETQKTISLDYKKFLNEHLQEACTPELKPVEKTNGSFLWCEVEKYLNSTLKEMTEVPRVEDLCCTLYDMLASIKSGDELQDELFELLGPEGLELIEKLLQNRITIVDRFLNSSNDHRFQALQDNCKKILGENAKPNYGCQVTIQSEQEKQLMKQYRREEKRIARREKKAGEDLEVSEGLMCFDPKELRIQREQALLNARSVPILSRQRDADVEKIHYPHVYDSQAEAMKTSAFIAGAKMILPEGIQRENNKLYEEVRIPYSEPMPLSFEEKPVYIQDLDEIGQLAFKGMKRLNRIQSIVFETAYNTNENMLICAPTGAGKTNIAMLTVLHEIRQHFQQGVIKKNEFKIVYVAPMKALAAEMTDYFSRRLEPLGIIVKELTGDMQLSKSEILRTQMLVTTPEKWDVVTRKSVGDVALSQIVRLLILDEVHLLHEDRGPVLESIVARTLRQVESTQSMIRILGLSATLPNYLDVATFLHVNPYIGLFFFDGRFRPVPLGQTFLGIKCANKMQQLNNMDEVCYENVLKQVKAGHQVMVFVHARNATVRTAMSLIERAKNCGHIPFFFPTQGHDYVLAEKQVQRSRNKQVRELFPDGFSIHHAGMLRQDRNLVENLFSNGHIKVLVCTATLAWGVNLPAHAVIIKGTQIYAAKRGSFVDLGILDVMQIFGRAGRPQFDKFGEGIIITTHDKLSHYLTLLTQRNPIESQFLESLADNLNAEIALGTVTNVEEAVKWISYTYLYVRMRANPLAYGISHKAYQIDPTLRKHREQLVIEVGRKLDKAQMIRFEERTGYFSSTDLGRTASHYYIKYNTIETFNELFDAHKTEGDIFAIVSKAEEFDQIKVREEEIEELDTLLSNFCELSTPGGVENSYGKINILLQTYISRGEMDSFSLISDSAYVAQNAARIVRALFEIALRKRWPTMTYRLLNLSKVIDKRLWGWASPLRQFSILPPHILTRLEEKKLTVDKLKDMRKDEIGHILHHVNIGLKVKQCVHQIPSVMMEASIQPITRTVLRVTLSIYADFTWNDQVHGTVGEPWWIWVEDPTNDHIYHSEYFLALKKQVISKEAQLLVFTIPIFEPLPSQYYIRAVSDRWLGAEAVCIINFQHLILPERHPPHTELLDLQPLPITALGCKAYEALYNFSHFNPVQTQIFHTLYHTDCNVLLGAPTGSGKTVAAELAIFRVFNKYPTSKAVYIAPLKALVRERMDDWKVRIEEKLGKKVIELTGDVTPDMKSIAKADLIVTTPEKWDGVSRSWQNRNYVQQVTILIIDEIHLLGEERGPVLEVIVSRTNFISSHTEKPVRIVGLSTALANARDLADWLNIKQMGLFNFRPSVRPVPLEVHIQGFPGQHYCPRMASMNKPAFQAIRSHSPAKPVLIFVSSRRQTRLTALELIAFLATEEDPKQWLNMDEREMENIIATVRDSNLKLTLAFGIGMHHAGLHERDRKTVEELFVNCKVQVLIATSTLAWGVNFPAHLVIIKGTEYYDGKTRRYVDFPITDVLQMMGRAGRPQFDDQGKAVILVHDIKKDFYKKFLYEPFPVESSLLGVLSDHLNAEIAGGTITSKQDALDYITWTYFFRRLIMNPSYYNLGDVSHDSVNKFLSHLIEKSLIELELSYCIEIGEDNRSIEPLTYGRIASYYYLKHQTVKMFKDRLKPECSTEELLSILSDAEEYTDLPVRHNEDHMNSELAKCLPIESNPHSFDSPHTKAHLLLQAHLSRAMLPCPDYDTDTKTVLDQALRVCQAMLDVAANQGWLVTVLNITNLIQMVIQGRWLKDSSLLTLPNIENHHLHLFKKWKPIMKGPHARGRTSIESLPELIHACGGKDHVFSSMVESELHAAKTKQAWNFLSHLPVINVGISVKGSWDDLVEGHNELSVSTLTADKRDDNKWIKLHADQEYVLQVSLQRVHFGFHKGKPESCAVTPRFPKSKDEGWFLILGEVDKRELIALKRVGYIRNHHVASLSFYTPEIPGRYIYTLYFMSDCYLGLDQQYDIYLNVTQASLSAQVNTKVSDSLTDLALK
UniProt P36542: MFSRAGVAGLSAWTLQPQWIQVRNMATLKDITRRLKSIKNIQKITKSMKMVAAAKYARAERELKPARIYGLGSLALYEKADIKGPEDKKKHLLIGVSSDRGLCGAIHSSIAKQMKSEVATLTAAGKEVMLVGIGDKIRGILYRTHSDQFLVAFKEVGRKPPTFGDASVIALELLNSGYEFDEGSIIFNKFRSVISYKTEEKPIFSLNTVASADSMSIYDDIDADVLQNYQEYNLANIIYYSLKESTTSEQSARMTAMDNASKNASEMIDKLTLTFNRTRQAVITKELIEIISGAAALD
UniProt Q6UW56: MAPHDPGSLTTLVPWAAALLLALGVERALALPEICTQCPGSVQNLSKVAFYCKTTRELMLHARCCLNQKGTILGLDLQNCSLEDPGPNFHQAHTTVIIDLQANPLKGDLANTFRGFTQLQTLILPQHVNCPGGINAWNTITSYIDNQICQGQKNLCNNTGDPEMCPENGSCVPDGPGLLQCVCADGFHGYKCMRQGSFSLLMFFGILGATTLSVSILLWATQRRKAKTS
UniProt P98194: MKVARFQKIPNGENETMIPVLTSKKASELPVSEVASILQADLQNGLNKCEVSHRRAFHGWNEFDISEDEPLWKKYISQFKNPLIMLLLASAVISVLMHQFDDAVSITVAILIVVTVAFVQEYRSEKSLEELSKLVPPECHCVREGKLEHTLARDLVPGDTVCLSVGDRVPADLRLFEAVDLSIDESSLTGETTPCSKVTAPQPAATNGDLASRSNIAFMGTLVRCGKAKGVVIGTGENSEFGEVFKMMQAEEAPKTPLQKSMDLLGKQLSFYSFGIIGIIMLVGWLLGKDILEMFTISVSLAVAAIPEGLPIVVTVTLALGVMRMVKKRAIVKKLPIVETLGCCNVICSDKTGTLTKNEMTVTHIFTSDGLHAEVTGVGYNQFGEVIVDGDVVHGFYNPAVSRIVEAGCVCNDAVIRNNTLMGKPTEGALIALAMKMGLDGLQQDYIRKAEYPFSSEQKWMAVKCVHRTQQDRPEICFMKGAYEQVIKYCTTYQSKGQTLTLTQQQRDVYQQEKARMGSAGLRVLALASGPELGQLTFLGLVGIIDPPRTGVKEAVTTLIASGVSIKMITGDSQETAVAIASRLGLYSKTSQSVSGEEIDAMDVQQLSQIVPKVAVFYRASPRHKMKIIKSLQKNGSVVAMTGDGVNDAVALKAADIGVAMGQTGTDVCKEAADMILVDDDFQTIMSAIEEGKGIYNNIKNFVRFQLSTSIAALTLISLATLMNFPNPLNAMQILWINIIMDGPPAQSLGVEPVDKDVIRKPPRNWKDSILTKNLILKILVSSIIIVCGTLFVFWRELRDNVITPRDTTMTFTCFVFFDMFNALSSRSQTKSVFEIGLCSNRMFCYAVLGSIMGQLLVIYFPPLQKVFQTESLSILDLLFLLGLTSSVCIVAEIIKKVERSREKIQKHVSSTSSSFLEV
UniProt Q96GX2: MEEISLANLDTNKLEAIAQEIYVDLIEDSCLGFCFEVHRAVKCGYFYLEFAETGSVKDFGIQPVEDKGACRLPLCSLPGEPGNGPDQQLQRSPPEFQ
UniProt Q9UI12, whole entry, looked up: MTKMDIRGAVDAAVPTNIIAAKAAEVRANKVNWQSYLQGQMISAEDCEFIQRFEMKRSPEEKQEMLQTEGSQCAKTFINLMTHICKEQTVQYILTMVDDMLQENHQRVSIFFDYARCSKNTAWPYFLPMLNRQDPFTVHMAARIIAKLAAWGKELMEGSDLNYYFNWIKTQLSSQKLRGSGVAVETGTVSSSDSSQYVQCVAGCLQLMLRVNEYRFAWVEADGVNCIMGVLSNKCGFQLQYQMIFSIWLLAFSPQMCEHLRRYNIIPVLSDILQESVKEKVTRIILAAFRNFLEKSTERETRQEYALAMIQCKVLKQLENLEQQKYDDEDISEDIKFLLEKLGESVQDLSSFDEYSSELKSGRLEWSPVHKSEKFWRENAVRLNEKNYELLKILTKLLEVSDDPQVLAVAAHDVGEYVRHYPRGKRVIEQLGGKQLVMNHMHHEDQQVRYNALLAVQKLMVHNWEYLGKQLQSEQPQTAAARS
UniProt Q9Y5K8, whole entry, looked up: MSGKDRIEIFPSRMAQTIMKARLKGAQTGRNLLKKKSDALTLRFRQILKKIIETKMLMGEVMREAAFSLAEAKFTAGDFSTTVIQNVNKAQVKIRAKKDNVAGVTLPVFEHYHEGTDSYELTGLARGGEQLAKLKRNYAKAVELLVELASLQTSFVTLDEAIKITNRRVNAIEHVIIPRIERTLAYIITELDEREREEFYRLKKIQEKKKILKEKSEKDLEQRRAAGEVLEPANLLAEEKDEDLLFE
UniProt P14415, whole entry, looked up: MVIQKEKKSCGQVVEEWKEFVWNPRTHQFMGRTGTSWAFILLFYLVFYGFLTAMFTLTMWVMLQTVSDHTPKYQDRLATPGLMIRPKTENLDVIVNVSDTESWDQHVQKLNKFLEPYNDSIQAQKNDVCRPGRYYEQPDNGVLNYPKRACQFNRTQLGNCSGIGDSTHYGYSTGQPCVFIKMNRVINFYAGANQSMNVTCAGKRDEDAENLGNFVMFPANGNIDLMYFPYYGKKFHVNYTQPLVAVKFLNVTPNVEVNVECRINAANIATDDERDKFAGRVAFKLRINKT
UniProt Q6ZNE5, whole entry, looked up: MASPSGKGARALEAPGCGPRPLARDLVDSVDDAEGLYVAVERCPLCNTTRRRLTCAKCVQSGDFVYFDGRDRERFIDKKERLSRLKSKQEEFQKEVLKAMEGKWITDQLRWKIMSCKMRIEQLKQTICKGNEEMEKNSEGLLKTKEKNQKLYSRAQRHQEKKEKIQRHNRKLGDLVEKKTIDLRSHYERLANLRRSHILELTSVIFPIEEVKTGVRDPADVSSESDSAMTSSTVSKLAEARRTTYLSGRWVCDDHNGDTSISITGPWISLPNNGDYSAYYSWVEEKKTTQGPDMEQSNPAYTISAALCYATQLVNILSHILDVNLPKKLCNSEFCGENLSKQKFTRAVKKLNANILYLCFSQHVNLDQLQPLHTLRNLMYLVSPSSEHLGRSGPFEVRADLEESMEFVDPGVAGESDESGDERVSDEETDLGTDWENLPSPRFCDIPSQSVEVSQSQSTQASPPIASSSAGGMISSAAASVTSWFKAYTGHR
UniProt Q14CW9: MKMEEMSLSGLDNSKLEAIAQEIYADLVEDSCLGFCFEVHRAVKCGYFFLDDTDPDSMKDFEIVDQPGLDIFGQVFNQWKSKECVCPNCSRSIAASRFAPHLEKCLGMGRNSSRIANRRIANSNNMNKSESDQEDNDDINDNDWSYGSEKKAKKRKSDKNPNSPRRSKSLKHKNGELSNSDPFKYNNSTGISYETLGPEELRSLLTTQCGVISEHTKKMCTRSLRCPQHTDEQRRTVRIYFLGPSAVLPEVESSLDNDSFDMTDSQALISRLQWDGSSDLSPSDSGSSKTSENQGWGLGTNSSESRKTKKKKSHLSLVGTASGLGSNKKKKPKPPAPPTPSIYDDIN
UniProt Q8NCR0: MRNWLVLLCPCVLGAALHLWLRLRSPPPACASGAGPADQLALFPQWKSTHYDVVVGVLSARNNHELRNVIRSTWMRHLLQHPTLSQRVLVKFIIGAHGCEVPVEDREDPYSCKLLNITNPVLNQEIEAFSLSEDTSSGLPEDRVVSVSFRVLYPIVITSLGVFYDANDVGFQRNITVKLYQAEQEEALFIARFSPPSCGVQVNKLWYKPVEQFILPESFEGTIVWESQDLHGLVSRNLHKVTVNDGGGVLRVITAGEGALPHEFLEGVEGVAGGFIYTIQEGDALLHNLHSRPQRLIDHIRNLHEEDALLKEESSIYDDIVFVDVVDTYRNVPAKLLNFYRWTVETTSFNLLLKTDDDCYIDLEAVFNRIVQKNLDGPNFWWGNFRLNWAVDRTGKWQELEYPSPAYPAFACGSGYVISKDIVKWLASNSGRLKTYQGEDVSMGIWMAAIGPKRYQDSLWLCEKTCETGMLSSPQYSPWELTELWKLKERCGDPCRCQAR

Columns and labels:
Assay in all cases: log2 fold change, soluble protein after heating vs DMSO (PISA); higher = thermal stabilisation; K562 lysate, 10 uM; active = over 0.2 and 3.5 SD of the protein, either way, in both replicates (recomputed)
erlotinib = compound: C#Cc1cccc(Nc2ncnc3cc(OCCOC)c(OCCOC)cc23)c1 [erlotinib]
Outline: (§1)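 The values are log-two fold changes in thermal stability compared with solvent controls and come from duplicates. They were obtained by TMTpro 16plex LC-MS/MS, with channel sums equalised, on the supernatant after 21,000xg for 90 min. That supernatant came from crude K562 extract at 1 mg/mL protein treated with 10 μM compound for 30 min, heated for 3 min across 48°C-58°C, pooled and brought to 0.5% NP-40 at 4°C.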

[1] = compound: C/C(=N\NC(=O)C1=CC(=CC=C1)S(=O)(=O)N2CCOCC2)/C3=C(C=CC(=C3)Cl)O
Outline: as §1

[2] = compound: C1=CC(=CC=C1C2=NC3=C(N2)C=C(C=C3)C(=O)N)OC4=CC=C(C=C4)Cl
Outline: as §1

[3] = compound: C1=CC2=C(C=CC(=C2)/C=C\3/C(=O)NC(=NCC4=CC=CS4)S3)N=C1
Outline: as §1

[4] = compound: C1=CC2=NC=CN=C2C=C1/C=C/3\C(=O)NC(=O)S3
Outline: as §1

[5] = compound: C1=CC=C(C=C1)C2=NC(=C(N2)C3=CC=NC=C3)C4=CC(=C(C=C4)Cl)O
Outline: as §1

[6] = compound: C1=CC=C2C(=C1)C3=NNC4=CC=CC(=C43)C2=O
Outline: as §1

[7] = compound: C1CCN(C1)C(=O)NC2=CC=CC(=C2)NC3=NC=C(C(=N3)NCCC4=CN=CN4)Br
Outline: as §1

[8] = compound: C1CN(CCC1(CC2=CC=C(C=C2)Cl)N)C3=NC=NC4=C3C=CN4
Outline: as §1

IRAK-1-4 Inhibitor I = compound: C1COCCN1CCN2C3=CC=CC=C3N=C2NC(=O)C4=CC(=CC=C4)[N+](=O)[O-] [IRAK-1-4 Inhibitor I]
Outline: as §1

ibrutinib = compound: C=CC(=O)N1CCC[C@@H](n2nc(-c3ccc(Oc4ccccc4)cc3)c3c(N)ncnc32)C1 [ibrutinib]
Outline: as §1

[9] = compound: CC(=O)c1cnc2ccc(-c3cc(Cl)c(O)c(Cl)c3)nc2c1N[C@H]1CC[C@H](CN(C)C)CC1
Outline: as §1

ralimetinib = compound: CC(C)(C)Cn1c(N)nc2ccc(-c3[nH]c(C(C)(C)C)nc3-c3ccc(F)cc3)nc21 [ralimetinib]
Outline: as §1

[10] = compound: CC(C)(O)CC(=O)NCCn1ccc2ncnc(Nc3ccc(Oc4cccc(C(F)(F)F)c4)c(Cl)c3)c21
Outline: as §1

[11] = compound: CC(C)C1=C2N=C(C=C(N2N=C1)NCC3=CC=CC=C3)NCCCCCCN
Outline: as §1

[12] = compound: CC1=C(C2=C(C=C1)C(=O)C3=CC=CC=C3N2CCCN)C
Outline: as §1

[13] = compound: CC1=C(C=C(C=C1)NC(=O)C2=CC(=CC=C2)C(C)(C)C#N)NC3=CC4=C(C=C3)N=CN(C4=O)C
Outline: as §1

[14] = compound: CC1=C(C=C(C=C1)NC(=O)C2=CC(=CC=C2)N(C)C)NC(=O)C3=CC=C(C=C3)O
Outline: as §1

[15] = compound: CC1=CC=C(C=C1)SC2=C3C=C(SC3=CN=C2)C(=O)N
Outline: as §1

[16] = compound: CC1=C(C(CC(=O)N1)C2=CC=C(C=C2)C(F)(F)F)C(=O)NC3=C(C=C4C(=C3)C=NN4)F
Outline: as §1

Measured: log2 fold change

AUH (UniProt Q13825)
inactive: erlotinib 0.003 | [1] -0.031 | [2] 0.083 | [3] -0.042 | [4] 0.111 | [5] 0.027 | [6] -0.035 | [7] 0.026 | [8] -0.045 | IRAK-1-4 Inhibitor I -0.008 | ibrutinib 0.024 | [9] 0.103 | ralimetinib -0.161 | [10] -0.003 | [11] 0.011 | [12] -0.304 | [13] 0.015 | [14] -0.132 | [15] -0.058

ASCC3 (UniProt Q8N3C0)
inactive: erlotinib 0.06 | [1] -0.175 | [2] 0.02 | [3] -0.044 | [4] -0.022 | [5] 0.03 | [6] -0.079 | [7] -0.026 | [8] 0.02 | IRAK-1-4 Inhibitor I 0.013 | ibrutinib 0 | [9] -0.023 | ralimetinib 0.03 | [10] -0.022 | [11] 0.042 | [16] 0.011 | [12] -0.109 | [13] -0.011 | [14] 0.046 | [15] -0.027

ATP7A isoform 3 (UniProt Q04656)
inactive: erlotinib 0.007 | [1] -0.046 | [2] -0.015 | [3] 0.005 | [4] 0.003 | [5] 0.037 | [6] -0.009 | [7] -0.004 | [8] 0.006 | IRAK-1-4 Inhibitor I -0.022 | ibrutinib -0.003 | [9] 0.015 | ralimetinib -0.018 | [10] -0.034 | [11] -0.004 | [16] -0.01 | [12] -0.014 | [13] 0.016 | [14] 0.01 | [15] -0.011

ATP5F1C (UniProt P36542)
inactive: erlotinib -0.029 | [1] 0.009 | [2] 0.008 | [3] -0.006 | [4] -0.009 | [5] 0.018 | [6] 0.01 | [7] 0.015 | [8] 0.012 | IRAK-1-4 Inhibitor I -0.007 | ibrutinib -0.024 | [9] -0.012 | ralimetinib -0.017 | [10] -0.039 | [11] -0.029 | [16] -0.001 | [12] -0.013 | [13] 0.014 | [14] -0.022 | [15] -0.003

ATP1A1 (UniProt P05023)
inactive: erlotinib 0.009 | [1] 0.031 | [2] 0.016 | [3] -0.017 | [4] 0 | [5] 0.014 | [6] -0.001 | [7] -0.014 | [8] -0.001 | IRAK-1-4 Inhibitor I 0.018 | ibrutinib -0.015 | [9] -0.001 | ralimetinib -0.003 | [10] -0.005 | [11] -0.018 | [16] 0 | [12] -0.012 | [13] 0.007 | [14] -0.019 | [15] -0.006

ATRAID isoform 3 (UniProt Q6UW56)
inactive: erlotinib 0.041 | [1] -0.044 | [2] 0.117 | [3] -0.014 | [5] 0.059 | [6] -0.091 | [7] 0.069 | [8] 0.015 | IRAK-1-4 Inhibitor I -0.029 | [9] -0.042 | ralimetinib -0.009 | [10] -0.031 | [11] -0.026 | [16] -0.011 | [12] 0.06 | [13] 0.043 | [14] -0.002 | [15] -0.046

ATP2C1 isoform 7 (UniProt P98194)
inactive: erlotinib -0.043 | [1] -0.005 | [2] -0.027 | [3] -0.243 | [4] 0.002 | [5] -0.034 | [6] -0.253 | [7] -0.198 | [8] 0.044 | IRAK-1-4 Inhibitor I -0.032 | ibrutinib -0.018 | [9] -0.003 | ralimetinib 0.021 | [10] 0.024 | [11] -0.028 | [16] -0.004 | [12] -0.127 | [13] 0.07 | [14] -0.013 | [15] -0.045

ATXN7L3B (UniProt Q96GX2)
inactive: erlotinib 0.033 | [1] 0.021 | [2] -0.044 | [3] 0.024 | [4] -0.017 | [5] -0.002 | [6] -0.037 | [7] -0.194 | [8] 0 | IRAK-1-4 Inhibitor I 0.022 | ibrutinib 0.031 | ralimetinib 0.019 | [10] -0.048 | [11] 0.039 | [16] -0.026 | [12] -0.014 | [13] 0.05 | [14] 0.029

Quoted at random: 2 records from the list, in no set order.
ATP1A1 (UniProt P05023)
inactive: erlotinib 0.009 | [1] 0.031 | [2] 0.016 | [3] -0.017 | [4] 0 | [5] 0.014 | [6] -0.001 | [7] -0.014 | [8] -0.001 | IRAK-1-4 Inhibitor I 0.018 | ibrutinib -0.015 | [9] -0.001 | ralimetinib -0.003 | [10] -0.005 | [11] -0.018 | [16] 0 | [12] -0.012 | [13] 0.007 | [14] -0.019 | [15] -0.006

ATP5F1C (UniProt P36542)
inactive: erlotinib -0.029 | [1] 0.009 | [2] 0.008 | [3] -0.006 | [4] -0.009 | [5] 0.018 | [6] 0.01 | [7] 0.015 | [8] 0.012 | IRAK-1-4 Inhibitor I -0.007 | ibrutinib -0.024 | [9] -0.012 | ralimetinib -0.017 | [10] -0.039 | [11] -0.029 | [16] -0.001 | [12] -0.013 | [13] 0.014 | [14] -0.022 | [15] -0.003

Additional records follow.

ATP5MF-PTCD1 (UniProt G3V325)
inactive: erlotinib -0.02 | [1] 0.023 | [2] -0.045 | [3] -0.031 | [4] 0.01 | [5] -0.066 | [6] -0.04 | [7] 0.01 | [8] -0.029 | IRAK-1-4 Inhibitor I -0.05 | ibrutinib 0.035 | [9] 0.015 | ralimetinib 0.027 | [10] -0.051 | [11] -0.009 | [16] 0.052 | [12] -0.013 | [13] -0.019 | [14] -0.017 | [15] 0.02

ATP6V1H (UniProt Q9UI12)
inactive: erlotinib 0.01 | [1] -0.005 | [2] 0 | [3] -0.031 | [4] -0.009 | [5] 0.01 | [6] 0.006 | [7] -0.006 | [8] 0.022 | IRAK-1-4 Inhibitor I 0.014 | ibrutinib 0 | [9] -0.016 | ralimetinib -0.036 | [10] -0.034 | [11] -0.031 | [16] -0.004 | [12] -0.02 | [13] 0.003 | [14] 0.018 | [15] -0.008

ATP6V1D (UniProt Q9Y5K8)
inactive: erlotinib -0.015 | [1] 0.027 | [2] 0.014 | [3] -0.007 | [4] -0.03 | [5] -0.019 | [6] 0.017 | [7] 0.024 | [8] -0.022 | IRAK-1-4 Inhibitor I -0.002 | ibrutinib 0.008 | [9] 0.01 | ralimetinib 0.02 | [10] -0.015 | [11] 0.003 | [16] 0.02 | [12] -0.001 | [13] -0.031 | [14] 0.03 | [15] -0.003

ATP1B2 (UniProt P14415)
inactive: erlotinib -0.011 | [1] 0.054 | [2] 0.015 | [3] 0.065 | [4] -0.008 | [5] -0.027 | [6] -0.06 | IRAK-1-4 Inhibitor I 0.007 | ibrutinib -0.028 | [9] -0.009 | ralimetinib -0.016 | [10] -0.024 | [11] -0.028 | [12] 0.015 | [14] 0.011 | [15] 0.018

ATG14 (UniProt Q6ZNE5)
inactive: erlotinib 0.071 | [1] -0.227 | [2] 0.064 | [3] 0.067 | [4] -0.026 | [6] 0.053 | [7] -0.49 | [8] -0.054 | ibrutinib 0.077 | [11] 0.009 | [16] -0.096 | [12] 0.167

ATP5F1A (UniProt K7ENJ4)
inactive: erlotinib 0.161 | [2] 0.029 | [5] 0.145 | IRAK-1-4 Inhibitor I 0.044 | [9] 0.059 | ralimetinib 0.057 | [10] 0.159 | [11] 0.07 | [16] -0.341 | [14] -0.081 | [15] -0.199

ATXN7L3 isoform 2 (UniProt Q14CW9)
inactive: erlotinib -0.285 | [2] -0.115 | [4] -0.029 | [5] -0.034 | IRAK-1-4 Inhibitor I 0.039 | ibrutinib -0.298 | [9] 0.089 | ralimetinib 0.055 | [10] -0.076 | [11] 0.017 | [16] 0.357 | [12] 0.05 | [13] -0.143 | [14] -0.012 | [15] -0.123

B3GALNT2 (UniProt Q8NCR0)
inactive: [5] -0.08 | IRAK-1-4 Inhibitor I -0.056 | [9] 0.092 | ralimetinib 0.005 | [10] -0.154 | [16] 0.086 | [12] 0.071 | [13] -0.101 | [14] 0.001 | [15] -0.117

ATP5F1C isoform 2 (UniProt P36542)
inactive: [4] -0.152 | [5] 0.231 | IRAK-1-4 Inhibitor I -0.063 | ibrutinib -0.038 | ralimetinib 0.032 | [10] 0.039 | [13] -0.086 | [14] -0.047
